Laboratory results taken from PubChem BioAssay AID504327 (National Center for Advancing Translational Sciences (NCATS), 2011).
“And” between values parts separate entries of the source, which are not always exact repeats. Equal entries are not always repeated. Hit rate of the full screen: of about 390,000 compounds, about 820 (0.21%) were called active. This list was built around the results that the source calls inconclusive (neither active nor inactive); the mix of calls is not that of the screen. Calls come from the whole dose curve; as a rule, active = well fitted inhibition curve with a large enough effect; inconclusive = small, poorly fitted or top-dose-only effect, or another doubt; inactive = no such curve, though single readings can be large or run the other way. Potencies of inconclusive entries are doubtful fits and often do not repeat.

Chains of the proteins cited; added tags and fusions are not shown.
UniProt Q92830, whole entry, looked up: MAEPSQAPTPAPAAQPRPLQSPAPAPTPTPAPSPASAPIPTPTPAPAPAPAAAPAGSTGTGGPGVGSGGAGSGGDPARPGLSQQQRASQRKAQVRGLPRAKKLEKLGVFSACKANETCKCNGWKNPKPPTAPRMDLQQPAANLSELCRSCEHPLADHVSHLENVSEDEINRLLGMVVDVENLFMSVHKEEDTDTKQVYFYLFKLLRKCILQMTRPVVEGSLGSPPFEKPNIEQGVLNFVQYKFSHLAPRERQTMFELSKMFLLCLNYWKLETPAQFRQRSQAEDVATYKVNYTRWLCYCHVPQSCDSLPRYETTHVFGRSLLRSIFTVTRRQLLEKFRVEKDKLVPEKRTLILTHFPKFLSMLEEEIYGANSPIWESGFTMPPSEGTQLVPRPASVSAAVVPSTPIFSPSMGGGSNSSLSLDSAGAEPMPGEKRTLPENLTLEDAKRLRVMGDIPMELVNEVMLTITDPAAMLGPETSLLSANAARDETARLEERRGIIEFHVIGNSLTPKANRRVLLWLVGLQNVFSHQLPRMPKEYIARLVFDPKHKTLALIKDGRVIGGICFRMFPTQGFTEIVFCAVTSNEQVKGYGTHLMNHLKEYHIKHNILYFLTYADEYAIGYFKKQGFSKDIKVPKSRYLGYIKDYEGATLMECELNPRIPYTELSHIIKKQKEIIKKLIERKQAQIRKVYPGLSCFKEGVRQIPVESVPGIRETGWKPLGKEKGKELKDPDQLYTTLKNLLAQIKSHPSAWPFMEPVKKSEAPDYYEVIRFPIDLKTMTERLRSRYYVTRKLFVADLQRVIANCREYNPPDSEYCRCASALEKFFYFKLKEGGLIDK

These molecules were tested against Histone acetyltransferase KAT2A (Homo sapiens) (UniProt Q92830) (assay: qHTS Assay for Inhibitors of GCN5L2). Details: GCN5L2 HAT assay, ThioGlo1 CoA-SH fluorescence; activity change, negative = inhibition: at 58.9 µM (top of the series) unless noted.
Method in brief: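 Free CoA generated was detected with ThioGlo1 (50uM) fluorescence at Ex340nm/Em540nm, read immediately and after 20 min at room temperature. Enzyme, 20 nM in HEPES pH 7.5 buffer, saw compounds 15 min before adding 75uM H3(1-25) peptide and 70uM acetyl-CoA.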
% is set by controls: 0 for no effect and ±100 for the full control effect; potency is the fitted concentration of half-maximal effect.

Structure (SMILES)	Potency	activity change, negative = inhibition
O=C(c1cc2cc(F)ccc2[nH]1)N1CCN(C(=O)c2ccco2)CC1	inconclusive: 3.16 µM [inhibitor, partial curve]	–
COc1ccc(OCCN2CCN(S(=O)(=O)c3ccccc3C#N)CC2)cc1	inconclusive: 12.6 µM [inhibitor, partial curve, poor fit]	–
COC(=O)c1ccc(CSc2nc(-c3ccco3)cc(C(F)(F)F)n2)o1	inconclusive: 39.8 µM [inhibitor, single point]	–
COc1cc(C(=O)NCC(=O)NCCN2C(=O)S/C(=C\c3ccc4c(c3)OCO4)C2=O)cc(OC)c1OC	inconclusive: 3.98 µM [inhibitor, single point]	–
Nc1ccccc1SSc1ccccc1N	inconclusive: 39.8 µM [inhibitor, single point]	–
COc1ccccc1Oc1c(C)oc2c(CN(C)C)c(O)ccc2c1=O	inconclusive: 35.5 µM [inhibitor, partial curve]	–
CN1CCCC(OC(=O)c2ccc(C#N)cc2)C1 (stereo not drawn)	inconclusive: 0.631 µM [inhibitor, full curve, poor fit]	–
C/C=C\C(=O)N(CC)c1ccccc1C	–	inactive: 0% [at 21.4 µM]
Cc1nn(-c2ccccc2)c(C)c1/C=N\N1CCN(c2ccc(Cl)cc2)CC1	–	inactive: -8.92%
COC(=O)COc1ccc(/C=C2\SC(=O)N(CC(=O)Nc3ccccc3F)C2=O)cc1	inconclusive: 39.8 µM [inhibitor, single point]	–
Cc1cccc(C)c1NC(=O)CC(NCc1ccco1)C(=O)O (stereo not drawn)	inconclusive: 3.16 µM [inhibitor, partial curve]	–
COc1ccc(-c2[nH]c(-c3cccc(OC)c3)nc2SCC(=O)Nc2ccc3c(c2)OCO3)cc1	–	inactive: -6.93%
O=C1/C(=C\c2cccc(O)c2)SC(=S)N1Cc1ccccc1	–	inactive: -16.7%
COCCNc1ncnc2ccc(-c3ccccc3C(F)(F)F)cc12	inconclusive: 35.5 µM [inhibitor, single point]	–
CCCCCN1C(C(=O)c2ccccc2)=C(NC(=O)c2ccc(OC)cc2)c2ccccc2S1(=O)=O	–	inactive: -3.4%
CC(Oc1ccc2cc(-c3ccccc3)c(=O)oc2c1)C(=O)NCC1CCC(C(=O)O)CC1 (stereo not drawn)	active: 31.6 µM	–
COc1ccc(-n2c(SCC(=O)Nc3cc(C)on3)nc3c([nH]c4ccccc43)c2=O)cc1OC	–	inactive: -9.22%
CC(OC(=O)COc1ccccc1[N+](=O)[O-])C(=O)Nc1ccc(N2CCOCC2)cc1 (stereo not drawn)	–	inactive: 2.13%
CC(=O)c1c(C)[nH]c(C(=O)CN(C)CC(=O)Nc2ccccc2Cl)c1C	–	inactive: -6.46%
Cc1c(OCC(=O)NCC2CCC(C(=O)O)CC2)ccc2c(-c3ccccc3)cc(=O)oc12 (stereo not drawn)	inconclusive: 35.5 µM [inhibitor, single point]	–
COC(=O)CNc1c(-c2ccccc2)nc2ccc(Br)cn12	–	inconclusive: -89.7% [inhibitor] [at 0.501 µM]
O=c1c(-c2cccs2)nc2cnc(Oc3ccccc3)nc2n1C1CC1	inconclusive: 20 µM [inhibitor, partial curve]	–

Structure (SMILES)	Potency	activity change, negative = inhibition
O=C(COc1ccc2c3c(c(=O)oc2c1)CCCC3)NCc1ccncc1	inconclusive: 35.5 µM [inhibitor, single point]	–
CCN(CC(=O)Nc1ccccc1C(F)(F)F)C(=O)c1cc(S(=O)(=O)N(C)C)ccc1N1CCCC1	inconclusive: 39.8 µM [inhibitor, single point]	–
Cc1cc(C(=O)Nc2nc3c(s2)CCCC3)cs1	–	inactive: -5.77%
CCOC(=O)c1ccc(OCCOc2ccccc2C)cc1	inconclusive: 7.08 µM [inhibitor, single point]	–
O=C(Nc1cc2c(cc1Br)OCCO2)c1cccnc1	inconclusive: 5.62 µM [inhibitor, single point]	–
C=CCn1c(SCc2cc(=O)n3ccsc3n2)nc2sc(C)c(C)c2c1=O	–	inactive: -4.46%
CC1=N/C(=C\c2ccc([N+](=O)[O-])cc2)C(=O)N1c1ccc(Cl)cc1	inconclusive: 35.5 µM [inhibitor, single point]	–
COc1ccc(C(C)=O)c(Oc2cc(NN3CCCCC3)c([N+](=O)[O-])cc2[N+](=O)[O-])c1	inconclusive: 5.62 µM [inhibitor, full curve, poor fit]	–
O=C(O)CCN1C(=O)/C(=C2\C(=O)N(Cc3ccc(F)cc3)c3ccccc32)SC1=S	inconclusive: 22.4 µM [inhibitor, single point]	–
O=c1c2c3c(sc2[nH]c(=S)n1Cc1ccco1)CCC3	inconclusive: 25.1 µM [inhibitor, single point]	–
NC(N)=NN=C1c2ccccc2-c2ccccc21	–	inactive: -8.95%
COc1ccc(/C=N\NC(=O)c2ccccc2Br)cc1COc1c(F)c(F)cc(F)c1F	inconclusive: 25.1 µM [inhibitor, partial curve]	–
Cc1ccccc1OCc1nnc(SCc2cc(=O)[nH]c3ccccc23)n1-c1ccccc1	–	inactive: -0.263%
O=C1OCCN1C(=O)[C@H]1[C@H](c2ccc(Cl)cc2)C(c2cccc(Cl)c2)=NN1c1ccccc1	inconclusive: 35.5 µM [inhibitor, single point] and inconclusive: 20 µM [inhibitor, partial curve]	–
O=C(CCSc1ccccc1)NNC(=O)c1ccccc1F	inconclusive: 25.1 µM [inhibitor, single point]	–
COc1ccc(N2C3=C(C(=O)CC(C)(C)C3)C(c3cnn(C)c3)C3=C2CC(C)(C)CC3=O)cc1	inconclusive: 5.01 µM [inhibitor, full curve, poor fit]	–
NC(=O)c1ccccc1NC(=O)Nc1cccc(Cl)c1Cl	–	inactive: -9%
Cc1cc(=O)n2nc(N3CCC(C(=O)NCCc4ccc(Cl)cc4)CC3)sc2n1	inconclusive: 2.24 µM [inhibitor, partial curve]	–
CCc1noc(C)c1C(=O)Nc1nc(-c2cccs2)cs1	–	inactive: -1.25%
O=[N+]([O-])c1ccc2nc(C3CCCCC3)[nH]c2c1	inconclusive: 4.47 µM [inhibitor, single point]	–
O=C(NCCc1ccccc1)c1nc2nc(-c3cccs3)cc(C(F)(F)F)n2n1	inconclusive: 39.8 µM [inhibitor, single point]	–

Arranged by length of the SMILES (largest number first): 8 of the compounds above
Structure (SMILES)	Potency	activity change, negative = inhibition
COc1ccc(N2C3=C(C(=O)CC(C)(C)C3)C(c3cnn(C)c3)C3=C2CC(C)(C)CC3=O)cc1	inconclusive: 5.01 µM [inhibitor, full curve, poor fit]	–
O=C(O)CCN1C(=O)/C(=C2\C(=O)N(Cc3ccc(F)cc3)c3ccccc32)SC1=S	inconclusive: 22.4 µM [inhibitor, single point]	–
C=CCn1c(SCc2cc(=O)n3ccsc3n2)nc2sc(C)c(C)c2c1=O	–	inactive: -4.46%
O=C(COc1ccc2c3c(c(=O)oc2c1)CCCC3)NCc1ccncc1	inconclusive: 35.5 µM [inhibitor, single point]	–
NC(=O)c1ccccc1NC(=O)Nc1cccc(Cl)c1Cl	–	inactive: -9%
O=C(Nc1cc2c(cc1Br)OCCO2)c1cccnc1	inconclusive: 5.62 µM [inhibitor, single point]	–
Cc1cc(C(=O)Nc2nc3c(s2)CCCC3)cs1	–	inactive: -5.77%
NC(N)=NN=C1c2ccccc2-c2ccccc21	–	inactive: -8.95%
